The subject of this assay is U937 cells. Nature of the assay: Delayed proliferation assay (MTT 48 hr after washing). The settings on record: Homo sapiens, U-937, 70 h, read-out: Maximum effective cytotoxicity (1-N/N0). As to the method: Microcultures treated with an agent or agents for a defined period (exactly as in Example 8) were washed. Seventy-five percent of the well volume was removed without disturbing the sedimented cells, and medium was added to yield a ⅕ dilution. In three additional washes and cell sedimentations, 50% of the medium was replaced such that the original concentration of agents was reduced to <5%. The metabolic mass of cells surviving or proliferating at 48 hr after the washings, including the untreated control cells, was then assayed by the MTT method (total elapsed time of 70 hours).
As an adjunct to the delayed proliferative assay, we utilized an “immediate plate” to quantitate the cell mass at the beginning of the experiment (N0=original cell mass). It required no more than a single column of microwells filled with 50 μl of growth medium each, and aliquots of cells in 50 μl identical to those transferred to the usual “test plate”. The immediate plate was incubated at 37° C. to complete the MTT assay for the same time as used for the test plate (i.e. 3 hr). […]
Taking the mean final cell mass at 70 hours as N, positive percentages represent the % effective cytotoxicity (EC%) expressed as 1−N/N0 and converted to a percentage, in relation to concentration. […]

The values that follow come from patent US6455593B1, “Method of dynamic retardation of cell cycle kinetics to potentiate cell damage” (priority 1995, dated 2002).

As to `CN[C@@H]1C[C@H]2O[C@@](C)([C@@H]1OC)n1c3ccccc3c3c4c(c5c6ccccc6n2c5c31)C(=O)NC4` [STSP, staurosporine], the Emax at 0.175 µM was ~85%.
